This is an account of results in patent publication US8524898B2, “Proton acceptor iminium/carbocation-type coupling agents” (Luxembourg Bio Technologies Ltd., priority 2007, dated 2013).

Where “and” joins values, the source holds several entries; their conditions need not be identical. Equal values may be shown once. Where only a bound is given, the exact number is not on record here.

The nature of data set [1]: Solution synthesis of di-peptide Z-Phg-Pro-NH2 (coupling yield and Phg racemization). The following applies: Z-Phg-Pro-NH2 in DMF; for DL (%): racemization.
A short description of data set [2]: Solution synthesis of tri-peptide Z-Phe-Val-Pro-NH2 (2+1; coupling yield and Val racemization). The following applies: Z-Phe-Val-Pro-NH2 in DMF; for LDL (%): racemization.
The nature of data set [3]: Solid-phase synthesis of Tyr-Aib-Aib-Phe-Leu-NH2 (Aib-Aib coupling). The following applies: for Pentapeptide (%) / Tetrapeptide (%): percent of total crude product, solid phase, DIEA (2 equivalents).
Data set [4] is described as follows: Solid-phase synthesis of 15-mer (60-74) fragment of acyl carrier protein (ACP). The settings on record: purity by reverse-phase HPLC; coupling 30 minutes, 3 equivalents reagent, 6 equivalents DIEA.
Setting [5] is: base DIEA (2) (no preactivation).
Where [6] appears, read: base DIEA (2) (no preactivation), listed as drawing 151.
Where [7] appears, read: base DIEA (2) (no preactivation), listed as drawing 158.
Where [8] appears, read: base DIEA (2) (no preactivation), listed as drawing 155.

Regarding `CN(C)C(N1CCOCC1)n1n[n+]([O-])c2cc(C(F)(F)F)ccc21` (stereo not drawn), in data set [1] (base DIEA (2)), the “Yields (%)” value is listed as 84.1% and the “DL (%)” value is on record as 0.6%.
For `CN(C)C(N1CCOCC1)n1n[n+]([O-])c2cc(Cl)ccc21` (stereo not drawn), in data set [1] (base DIEA (2)), the “Yields (%)” value was 84.5% and the “DL (%)” value came out at 1.5%.
For the compound `N#CC(C#N)=NOC(N1CCOCC1)=[N+]1CCCC1`, in data set [1] (base DIEA (2)), the “Yields (%)” value was 90.2% and the “DL (%)” value worked out at 0.35%.
The corresponding values for “1((dimethylimino)(thiomorpholino)methyl)3-H- [1,2,3]triazolo[4,5-b]pyridine-1-3-olate hexafluorophosphate [HDTMA]” are 83.0% and 2.1%.
On to “1-((dimethylimino)(morpholino)methyl)3-H-6-chlorobenzo[1,2,3]triazolo-1-ium-3-olate hexafluorophosphate [6-Cl-HDMB]”, for which, in data set [2] (base DIEA (1)), the “Yield (%)” value is given as 79.9% and the “LDL (%)” value was 13.9%. Further, in data set [3], the “yield per a particular Aib-Aib coupling step” value was determined as 98.7%, the “Pentapeptide (%)” value is 98.7% and the “Tetrapeptide (%)” value was determined as 1.3%. The “15-mer peptide (%)” value in data set [4] is on record as 62.9%.
As to “1-((dimethylimino)(morpholino)methyl)3-H-[1,2,3]triazolo[4,5-b]pyridine-1-3-olate hexafluorophosphate [HDMA]”, the “Yields (%)” value is recorded as 82.3% in data set [1] (base DIEA (1)), 81.2% in data set [1] (base DIEA (2)) and 80.3% in data set [1] (base TMP (2)). The “DL (%)” value in data set [1] (base DIEA (1)) is 1.6%; in data set [1] (base DIEA (2)), 1.6%; in data set [1] (base TMP (2)), 3.9%. Also, the “Yield (%)” value in data set [2] (base DIEA (1)) worked out at 87.4%; in data set [2] (base DIEA (2)), 89.3%; in data set [2] (base TMP (1)) it was 84.1%; in data set [2] (base TMP (2)), 86.2%. In addition, the “LDL (%)” value is given as 5.1% in data set [2] (base DIEA (1)), 10.5% in data set [2] (base DIEA (2)), 3.8% in data set [2] (base TMP (1)) and 3.7% in data set [2] (base TMP (2)). Besides, the “yield per a particular Aib-Aib coupling step” value in data set [3] is 98%. The “Pentapeptide (%)” value in data set [3] is 98%. The “Tetrapeptide (%)” value in data set [3] is less than 1%. The “15-mer peptide (%)” value in data set [4] is 63.6%.
With “1-((dimethylimino)(morpholino)methyl)3-H-benzo[1,2,3]triazolo-1-ium-3-olate Hexafluorophosphate [HDMB]”, the results for the “Yields (%)” value in data set [1] (base DIEA (1)), in data set [1] (base DIEA (2)) and in data set [1] (base TMP (2)) were 82.3%, 80.8% and 79.9%, respectively. For the same compound, the “DL (%)” value in data set [1] (base DIEA (1)) was determined as 3.1%; in data set [1] (base DIEA (2)) it was 3.8%; in data set [1] (base TMP (2)), 7.8%. Besides, the “Yield (%)” value in data set [2] (base DIEA (1)) was determined as 86.3%; in data set [2] (base DIEA (2)) it was 88.7%; in data set [2] (base TMP (1)), 80.1%; in data set [2] (base TMP (2)) it was 87.1%. Moreover, the “LDL (%)” value stood at 11.5% in data set [2] (base DIEA (1)), 20.3% in data set [2] (base DIEA (2)), 10.5% in data set [2] (base TMP (1)) and 13.3% in data set [2] (base TMP (2)). For the same compound, the “yield per a particular Aib-Aib coupling step” value in data set [3] amounted to 89%. In addition, the “Pentapeptide (%)” value in data set [3] amounted to 89%. Also, the “Tetrapeptide (%)” value in data set [3] stood at 10%. For the same compound, the “15-mer peptide (%)” value in data set [4] is reported as 61.6%.
With `CN(C)C(Cl)N1CCOCC1` (stereo not drawn) [DCMH, 4-((dimethylamino)chloromethylene)morpholin-4-iminium hexafluorophosphate], in data set [1] (setting [5]), the “Yields (%)” value is listed as 81.9% and the “DL (%)” value was 6.9%.
Consider `CN(C)C(F)N1CCOCC1` (stereo not drawn) [DFMH, 4-((dimethylamino)fluoromethylene)morpholin-4-iminium hexafluorophosphate], for which, in data set [1] (setting [5]), the “Yields (%)” value came to 82.6% and the “DL (%)” value worked out at 4.9%. Moreover, in data set [1] (setting [6]), the “Yields (%)” value is 82.6% and the “DL (%)” value was found to be 4.9%.
Turning to `CN(C)C(N1CCOCC1)n1n[n+]([O-])c2ncccc21` (stereo not drawn) [HDMA, 1-((dimethylimino)(morpholino)methyl)3-H-[1,2,3]triazolo[4,5-b]pyridine-1-3-olate hexafluorophosphate], in data set [1] (base DIEA (2)), the “Yields (%)” value worked out at 81.2% and the “DL (%)” value is listed as 1.6%.
As for `CCOC(=O)/C(C#N)=N/OC(N1CCOCC1)=[N+](C)C` [HDMOCC, 1-[(1-(Cyano-2-ethoxy-2-oxoethylideneaminooxy)-dimethylamino-morpholinomethylene)]methanaminium hexafluorophosphate], in data set [1] (base DIEA (2)), the “Yields (%)” value is recorded as 88.2% and the “DL (%)” value was 0.12%. Moreover, in data set [1] (base TMP (2)), the “Yields (%)” value worked out at 91.0% and the “DL (%)” value turned out to be 0.90%.
Turning to `CCOC(=O)C(C#N)=NOC(N1CCOCC1)=[N+](C)C` [HDMOCC, 1-[(1-(Cyano-2-ethoxy-2-oxoethylideneaminooxy)-dimethylamino-morpholinomethylene)]methanaminium hexafluorophosphate], the entries for the “Yields (%)” value in data set [1] (base DIEA (2)) and in data set [1] (base TMP (2)) were 88.2% and 91.0%, respectively. For the same compound, the “DL (%)” value in data set [1] (base DIEA (2)) turned out to be 0.12%; in data set [1] (base TMP (2)), 0.90%. In addition, the “Yield (%)” value was 91.3% in data set [2] (base DIEA (2)); 90.3% in data set [2] (base TMP (1)); 89.8% and 90.3% in data set [2] (base TMP (2)). Further, the “LDL (%)” value in data set [2] (base DIEA (2)) was 19.3%; in data set [2] (base TMP (1)), 3.5%; in data set [2] (base TMP (2)), 8.0% and 7.0% and 3.5%. Also, in data set [4], the “15-mer peptide (%)” value is reported as 79.4%.
With `C[N+](C)=C(ON=C(C#N)C#N)N1CCOCC1` [HDMODC, 1-[(1-(dicyanomethyleneaminooxy)-dimethylamino-morpholinomethylene)]methanaminium hexafluorophosphate], in data set [1] (base DIEA (2)), the “Yields (%)” value amounted to 90.1% and the “DL (%)” value was found to be 0.40%.
The corresponding values for `CN(C)C(N1CCSCC1)=[N+]1N=[N+]([O-])c2ccccc21.F[P-](F)(F)(F)(F)F` [HDTMB, 1((dimethylimino)(thiomorpholino)methyl)3-H-benzo[1,2,3]triazolo-1-ium-3-olate Hexafluorophosphate] are 81.3% and 3.5%.
Turning to `CCOC(=O)C(C#N)=NOC(N(C)C)=[N+]1CCCC1` [HDmPyOCC, 1-[(1-(Cyano-2-ethoxy-2-oxoethylideneaminooxy)-dimethylamino-pyrrolodinomethylene)]methanaminium hexafluorophosphate], in data set [2] (base TMP (2)), the “Yield (%)” value is 88.0% and the “LDL (%)” value is given as 7.9%.
The corresponding values for `CCOC(=O)/C(C#N)=N/OC(N1CCOCC1)=[N+]1CCCC1` [HMPyOCC, 1-((1-cyano-2-ethoxy-2-oxoethylideneaminooxy)(morpholino)methylene) pyrrolidinium hexafluorophosphate] are 91.0% and 10.2%.
In the case of `CN(C)C(F)N1CCOCC1` (stereo not drawn) [TCFH, reference compound], in data set [1] (setting [5]), the “Yields (%)” value worked out at 80.0% and the “DL (%)” value is recorded as 29.9%. Further, in data set [1] (setting [7]), the “Yields (%)” value was 80.0% and the “DL (%)” value is 29.9%.
In the case of `CN(C)C(F)N1CCOCC1` (stereo not drawn) [TFFH, Fluoro-N,N,N″,N″-tetramethylformamidinium hexafluorophosphate, reference compound], the “Yields (%)” value in data set [1] (setting [5]) and in data set [1] (setting [8]) was 80.1% throughout. For the same compound, the “DL (%)” value in data set [1] (setting [5]) and in data set [1] (setting [8]) was 7.1% in each case.
For the compound `CCOC(=O)/C(C#N)=N/OC(N1CCOCC1)=[N+](C)C` [drawing 161], in data set [1] (base TMP (1)), the “Yields (%)” value is given as 93.0% and the “DL (%)” value is 0.40%.
Turning to `CCOC(=O)/C(C#N)=N/OC(N1CCOCC1)=[N+]1CCCC1` [drawing 162], in data set [1] (base DIEA (2)), the “Yields (%)” value came to 89.8% and the “DL (%)” value worked out at 0.32%.
